Experimental data: PMC11666741
No constants are given. Whether binding was seen depends on the method and setting. For some of these results: Binding can be weak; no strength is given. Sequences can lack the tags named with a protein. Blank lines part the entries; values can stand above or below the molecule they belong to.

Experiments:
[1] = target: T1, VQ10 (VQ motif-containing protein 10), yeast two-hybrid fusion (Arabidopsis thaliana) (UniProt Q8VYI5); assay: two-hybrid; Matchmaker Gold mating system: Y2HGold with GAL4-BD baits mated with Y187 with GAL4-AD preys; diploids on SD/QDO (-Ade/-His/-Leu/-Trp); empty BD or AD clones as controls
T1 sequence: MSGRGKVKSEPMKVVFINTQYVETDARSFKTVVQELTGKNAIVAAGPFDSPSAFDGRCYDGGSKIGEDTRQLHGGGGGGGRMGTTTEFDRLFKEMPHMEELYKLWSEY

[2] = target: T2, VQ1 (VQ motif-containing protein 1), yeast two-hybrid fusion (Arabidopsis thaliana) (UniProt Q1G3U8); assay: as above
T2 sequence: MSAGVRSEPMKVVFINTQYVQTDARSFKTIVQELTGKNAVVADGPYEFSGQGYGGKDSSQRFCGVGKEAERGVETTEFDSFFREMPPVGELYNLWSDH

[3] = target: T1, VQ10 (VQ motif-containing protein 10), yeast two-hybrid fusion (Arabidopsis thaliana); assay: condition: only in the orientation BD-VQ10 with AD-VQ27; two-hybrid; Matchmaker Gold mating system: Y2HGold with GAL4-BD baits mated with Y187 with GAL4-AD preys; diploids on SD/QDO (-Ade/-His/-Leu/-Trp); empty BD or AD clones as controls
[4] = target: VQ27, yeast two-hybrid fusion (Arabidopsis thaliana); assay: two-hybrid; Matchmaker Gold mating system: Y2HGold with GAL4-BD baits mated with Y187 with GAL4-AD preys; diploids on SD/QDO (-Ade/-His/-Leu/-Trp); empty BD or AD clones as controls

binding [1]: binds | binding [2]: binds
Molecule: VQ32, yeast two-hybrid fusion (Arabidopsis thaliana)

binding [1]: binds | binding [2]: binds
Molecule: VQ24, yeast two-hybrid fusion (Arabidopsis thaliana)

binding [2]: binds | binding [3]: no binding
Molecule: VQ27, yeast two-hybrid fusion (Arabidopsis thaliana)

binding [4]: binds
B1: VQ10 (VQ motif-containing protein 10), yeast two-hybrid fusion (protein, UniProt Q8VYI5 1-108)
chain: T1 sequence
